{"source": "PubChem BioAssay AID602196 – INSERM – 2012", "aim": "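Genes whose knock-down alters cisplatin killing of lung cancer cells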", "cells": "human A549 lung cancer cells", "reagents": "siRNA pair against human genes", "time to read-out": "48 h transfection before cisplatin; time from cisplatin to read-out not stated", "challenge": "cisplatin at a dose killing half of control-siRNA cells; exact dose and duration not given", "measured": "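Shift in cisplatin death relative to control siRNA, from -50 (all cells die) to +50 (no cells die); siRNAs harmful on their own scored 0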", "scale": "two-siRNA summed score (-2 to +2): higher = both siRNAs protect from cisplatin killing; -2 means both sensitise", "active means": "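Each siRNA scores 0 if harmful alone by LDH or WST-1, otherwise +1 if it reduces and -1 if it increases cisplatin killing; a gene is active when both siRNAs agree (sum +2 or -2)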", "calls": "active = both siRNAs shift cisplatin killing the same way; inactive = no consistent shift, or siRNA harmful alone", "note": "Here is an unselected part of about 23,000 deposited reagents. In the full data, 455 (2%) are marked active. 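Active includes both protection and sensitisation; some change values fall well beyond the stated -50 to +50 range.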 The numbers tell different reagents against one gene apart. Not all columns of the deposit are shown. The record does not give: the amount of reagent."}
{"Gene": "IGFL3 (IGF like family member 3)", "reagent no.": 1, "two-siRNA summed score (-2 to +2)": 1, "call": "inactive"}
{"Gene": "DBNL (drebrin like)", "reagent no.": 1, "two-siRNA summed score (-2 to +2)": 0, "call": "inactive"}
{"Gene": "DBNL (drebrin like)", "reagent no.": 2, "two-siRNA summed score (-2 to +2)": 1, "call": "inactive"}
{"Gene": "FRMD1 (FERM domain containing 1)", "reagent no.": 1, "two-siRNA summed score (-2 to +2)": -1, "call": "inactive"}
{"Gene": "CALD1 (caldesmon 1)", "reagent no.": 1, "two-siRNA summed score (-2 to +2)": -1, "call": "inactive"}
{"Gene": "LOC387630", "reagent no.": 1, "two-siRNA summed score (-2 to +2)": 0, "call": "inactive"}
{"Gene": "SLC25A20", "reagent no.": 1, "two-siRNA summed score (-2 to +2)": 0, "call": "inactive"}
{"Gene": "GPD2 (glycerol-3-phosphate dehydrogenase 2)", "reagent no.": 1, "two-siRNA summed score (-2 to +2)": 0, "call": "inactive"}
{"Gene": "LOC400707 (retired record)", "reagent no.": 1, "two-siRNA summed score (-2 to +2)": 0, "call": "inactive"}
{"Gene": "RNF123 (ring finger protein 123)", "reagent no.": 1, "two-siRNA summed score (-2 to +2)": 0, "call": "inactive"}
{"Gene": "PLXNA3 (plexin A3)", "reagent no.": 1, "two-siRNA summed score (-2 to +2)": 0, "call": "inactive"}
{"Gene": "COL21A1 (collagen type XXI alpha 1 chain)", "reagent no.": 1, "two-siRNA summed score (-2 to +2)": 0, "call": "inactive"}
{"Gene": "PARL (presenilin associated rhomboid like)", "reagent no.": 1, "two-siRNA summed score (-2 to +2)": 0, "call": "inactive"}
{"Gene": "LOC440964", "reagent no.": 1, "two-siRNA summed score (-2 to +2)": 1, "call": "inactive"}
{"Gene": "CYTH2 (cytohesin 2)", "reagent no.": 1, "two-siRNA summed score (-2 to +2)": -1, "call": "inactive"}
{"Gene": "ENKUR (enkurin, TRPC channel interacting protein)", "reagent no.": 1, "two-siRNA summed score (-2 to +2)": 0, "call": "inactive"}

Single entries from above.
For “call”, LOC440964 shows inactive
For “call”, DBNL (drebrin like) #1 shows inactive
Under “two-siRNA summed score (-2 to +2)”, CYTH2 (cytohesin 2) shows -1
Result for PLXNA3 (plexin A3) in “call”: inactive

Continued.
{"Gene": "LOC389905", "reagent no.": 1, "two-siRNA summed score (-2 to +2)": 1, "call": "inactive"}
{"Gene": "GLE1 (GLE1 RNA export mediator)", "reagent no.": 1, "two-siRNA summed score (-2 to +2)": 2, "call": "active"}
{"Gene": "PRMT2IP (PRMT2 interacting protein)", "reagent no.": 1, "two-siRNA summed score (-2 to +2)": 0, "call": "inactive"}
{"Gene": "MRPL11 (mitochondrial ribosomal protein L11)", "reagent no.": 1, "two-siRNA summed score (-2 to +2)": 0, "call": "inactive"}
{"Gene": "SATB2 (SATB homeobox 2)", "reagent no.": 1, "two-siRNA summed score (-2 to +2)": 0, "call": "inactive"}
{"Gene": "SAV1 (salvador family WW domain containing protein 1)", "reagent no.": 1, "two-siRNA summed score (-2 to +2)": 0, "call": "inactive"}
{"Gene": "SYNC (syncoilin, intermediate filament protein)", "reagent no.": 1, "two-siRNA summed score (-2 to +2)": 0, "call": "inactive"}
{"Gene": "SERHL (serine hydrolase like (pseudogene))", "reagent no.": 1, "two-siRNA summed score (-2 to +2)": 0, "call": "inactive"}
{"Gene": "LOC401622", "reagent no.": 1, "two-siRNA summed score (-2 to +2)": 1, "call": "inactive"}
{"Gene": "PTPRCAP", "reagent no.": 1, "two-siRNA summed score (-2 to +2)": 0, "call": "inactive"}
{"Gene": "LOC442397", "reagent no.": 1, "two-siRNA summed score (-2 to +2)": 0, "call": "inactive"}
{"Gene": "TMEM234 (transmembrane protein 234)", "reagent no.": 1, "two-siRNA summed score (-2 to +2)": -2, "call": "active"}
{"Gene": "OR10Q1 (olfactory receptor family 10 subfamily Q member 1)", "reagent no.": 1, "two-siRNA summed score (-2 to +2)": 0, "call": "inactive"}
{"Gene": "PCDH11Y (protocadherin 11 Y-linked)", "reagent no.": 1, "two-siRNA summed score (-2 to +2)": 0, "call": "inactive"}
{"Gene": "SUPT6H", "reagent no.": 1, "two-siRNA summed score (-2 to +2)": 0, "call": "inactive"}
